PubChem BioAssay AID1259424 – University of Nebraska Medical Center, 2018

Screen: 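Rank knockdowns across the genome by resemblance to the KSR1 depletion profile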 (primary screen)
System: human HCT116 colon cancer cells
Knock-down reagent: siRNA pool against human genes, 50 nM
Read-out: 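Six signature mRNAs by branched-DNA multiplex assay, scaled to two housekeeping genes and non-targeting median, log2; matched to mean KSR1 knockdown profile by Pearson correlation and euclidean distance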
Scale: mean correlation with KSR1 profile and KSR1 correlation: higher = expression change more like KSR1 knockdown; mean distance from KSR1 profile: higher = expression change less like KSR1 knockdown
Shown is a random part of about 14,000 deposited reagents. 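Higher correlation or smaller distance means closer resemblance to KSR1 loss; control wells, including KSR1 knockdowns, recur on many plates.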 Not given: the time to read-out.

The first 3 entries, ahead of the listing:
Target gene | mean correlation with KSR1 profile | mean distance from KSR1 profile | KSR1 correlation, replicate 1 | KSR1 correlation, replicate 2 | KSR1 correlation, replicate 3
EGR4 | 0.787 | 0.757 | 0.708 | 0.498 | 0.839
COLQ | 0.0316 | 1.09 | -0.00212 | -0.315 | 0.17
GPKOW | -0.149 | 1.87 | -0.27 | -0.357 | -0.332

The list itself, from the first entry:
Target gene | mean correlation with KSR1 profile | mean distance from KSR1 profile | KSR1 correlation, replicate 1 | KSR1 correlation, replicate 2 | KSR1 correlation, replicate 3
EGR4 | 0.787 | 0.757 | 0.708 | 0.498 | 0.839
COLQ | 0.0316 | 1.09 | -0.00212 | -0.315 | 0.17
GPKOW | -0.149 | 1.87 | -0.27 | -0.357 | -0.332
SPATC1L | 0.846 | 1.06 | 0.728 | 0.81 | 0.749
PHTF1 | -0.238 | 2.71 | 0.0691 | -0.0731 | -0.127
VPS18 | 0.611 | 0.725 | 0.4 | 0.366 | 0.597
GFPT1 | 0.0276 | 3.06 | -0.106 | -0.0995 | 0.155
AP1AR | -0.37 | 1.58 | 0.0599 | -0.442 | -0.289
KCNK13 | -0.411 | 2.89 | -0.347 | -0.4 | -0.405
NKRF | 0.139 | 2.33 | 0.157 | 0.153 | 0.073
MEF2A | -0.133 | 2.91 | 0.126 | -0.401 | -0.0847
KCNIP2 | 0.282 | 2.06 | -0.00524 | 0.32 | 0.148
IL4R | 0.219 | 1.62 | 0.401 | 0.196 | 0.17
SOX30 | -0.177 | 2.02 | -0.269 | -0.0638 | -0.213
MRPL19 | 0.0592 | 2.6 | 0.108 | 0.209 | -0.026
TGFB2 | -0.35 | 1.94 | -0.328 | -0.331 | -0.455
S1PR5 | 0.782 | 1.73 | 0.74 | 0.803 | 0.791
AKAP6 | 0.881 | 1.68 | 0.941 | 0.862 | 0.543
XRCC2 | -0.223 | 1.86 | -0.358 | -0.158 | 0.145
U2AF1 | -0.448 | 3.93 | -0.442 | -0.335 | -0.568
SH3BGRL | -0.0814 | 2.08 | 0.0207 | -0.172 | -0.0372
TRIAP1 | -0.0871 | 2.34 | 0.112 | -0.277 | 0.0775
DGKQ | -0.589 | 3.75 | -0.605 | -0.609 | -0.584
ARMC10 | 0.699 | 1.77 | 0.52 | 0.626 | 0.892
DELE1 | 0.157 | 2.75 | 0.276 | 0.207 | 0.109
GABPA | 0.661 | 2.13 | 0.805 | 0.607 | 0.432
SNN | -0.46 | 2.73 | -0.606 | -0.486 | -0.179
TRMT61B | -0.84 | 5.78 | -0.6 | -0.624 | -0.62
IFIT2 | -0.335 | 5.32 | -0.423 | -0.332 | -0.389
FRMPD1 | -0.0273 | 2.5 | 0.0992 | -0.156 | 0.0444
LY6G5B | 0.683 | 1.71 | 0.716 | 0.609 | 0.67
L1CAM | 0.325 | 2.09 | 0.417 | 0.416 | 0.318
POGZ | -0.185 | 1.9 | -0.229 | 0.0145 | -0.322
UGT2B11 | -0.13 | 2.32 | 0.0516 | -0.173 | -0.181
TIE1 | 0.298 | 2.11 | 0.393 | 0.123 | 0.244
THOC2 | -0.117 | 5.17 | -0.143 | -0.153 | -0.212
ZNF532 | 0.56 | 1.53 | 0.518 | 0.513 | 0.41
CAPN11 | 0.104 | 1.11 | 0.42 | -0.116 | -0.0374
SH3BP5L | -0.0761 | 3.81 | -0.255 | -0.0948 | -0.146
KCNK3 | -0.297 | 4.01 | -0.185 | -0.215 | -0.305
GLYR1 | 0.069 | 1.8 | 0.129 | -0.0926 | 0.126
SQOR | -0.194 | 1.46 | -0.626 | 0.0674 | 0.164
SSTR1 | 0.498 | 3.46 | 0.468 | 0.538 | 0.544
SOCS7 | 0.575 | 1.71 | 0.394 | 0.658 | 0.494
UBE2E3 | 0.301 | 2.31 | 0.267 | 0.341 | 0.29
CXXC4 | 0.703 | 1.6 | 0.281 | 0.634 | 0.65
CCR6 | 0.42 | 2.19 | 0.393 | 0.348 | 0.56
SLC10A2 | 0.3 | 1.73 | 0.303 | 0.231 | 0.345
C19orf33 | 0.547 | 1.19 | 0.211 | 0.463 | 0.599
MCCC1 | 0.0495 | 1.44 | 0.169 | -0.0974 | -0.179
